No constants are given. Whether binding was seen depends on the method and setting. A result given as binding can be weak or reduced; the word gives no strength.
Molecular target: OsMRG702 (MORF-RELATED GENE702), yeast two-hybrid fusion (rice (Oryza sativa L.)) (UniProt Q2R2X7)
Experiment: two-hybrid; pGADT7 and pGBKT7 constructs in yeast AH109 and YH187, mated; interaction observed on SD-Leu/-Trp and SD-His/-Leu/-Trp/-Ade solid medium, 4 days at 30 °C

OsMRGBP, yeast two-hybrid fusion (from UniProt Q6L528)
binding: binds

From article PMC10252469
